Measurements from paper PMC8263627.
These are yes or no findings as the source states them, for the method shown. Binding seen in cells or lysates may run through a third protein. Some binding calls cover weakened binding; strength is not graded here.

Protein sequences, listed by entry. Tags and fused reporters are not part of them.
UniProt Q92804: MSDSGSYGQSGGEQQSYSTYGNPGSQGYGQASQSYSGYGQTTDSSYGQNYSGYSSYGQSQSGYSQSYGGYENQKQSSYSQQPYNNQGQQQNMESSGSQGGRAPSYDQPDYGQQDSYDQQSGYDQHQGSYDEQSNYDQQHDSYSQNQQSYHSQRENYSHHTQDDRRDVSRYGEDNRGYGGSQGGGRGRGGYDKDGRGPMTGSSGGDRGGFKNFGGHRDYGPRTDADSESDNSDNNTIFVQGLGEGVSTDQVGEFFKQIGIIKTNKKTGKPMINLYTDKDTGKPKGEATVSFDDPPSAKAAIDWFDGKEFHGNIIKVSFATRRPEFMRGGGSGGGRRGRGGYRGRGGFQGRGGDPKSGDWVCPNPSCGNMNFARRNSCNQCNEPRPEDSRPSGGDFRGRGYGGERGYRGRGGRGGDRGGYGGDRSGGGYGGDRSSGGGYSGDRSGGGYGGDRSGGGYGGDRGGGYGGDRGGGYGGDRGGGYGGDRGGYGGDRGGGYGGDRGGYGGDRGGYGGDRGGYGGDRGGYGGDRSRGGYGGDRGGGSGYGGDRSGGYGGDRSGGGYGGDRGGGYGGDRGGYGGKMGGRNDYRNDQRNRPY
UniProt P10244: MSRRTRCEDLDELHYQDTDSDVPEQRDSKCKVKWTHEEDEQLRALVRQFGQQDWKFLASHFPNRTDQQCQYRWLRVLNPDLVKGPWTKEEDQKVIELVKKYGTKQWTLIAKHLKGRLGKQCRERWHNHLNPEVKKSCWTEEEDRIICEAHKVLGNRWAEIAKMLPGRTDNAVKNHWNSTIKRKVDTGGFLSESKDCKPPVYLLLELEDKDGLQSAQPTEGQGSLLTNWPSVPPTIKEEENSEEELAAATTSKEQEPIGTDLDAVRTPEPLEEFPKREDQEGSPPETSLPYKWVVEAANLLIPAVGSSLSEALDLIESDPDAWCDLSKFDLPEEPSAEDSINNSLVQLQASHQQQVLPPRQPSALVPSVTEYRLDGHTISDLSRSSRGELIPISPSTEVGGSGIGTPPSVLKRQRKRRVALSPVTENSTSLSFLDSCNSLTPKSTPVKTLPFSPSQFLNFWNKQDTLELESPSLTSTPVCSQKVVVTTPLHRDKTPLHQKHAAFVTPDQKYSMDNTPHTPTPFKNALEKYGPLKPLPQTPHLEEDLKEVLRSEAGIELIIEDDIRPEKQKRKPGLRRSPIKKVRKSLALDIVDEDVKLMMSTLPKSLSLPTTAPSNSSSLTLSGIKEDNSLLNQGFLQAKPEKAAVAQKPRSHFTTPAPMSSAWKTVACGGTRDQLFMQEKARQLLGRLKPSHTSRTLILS
UniProt Q5TKA1: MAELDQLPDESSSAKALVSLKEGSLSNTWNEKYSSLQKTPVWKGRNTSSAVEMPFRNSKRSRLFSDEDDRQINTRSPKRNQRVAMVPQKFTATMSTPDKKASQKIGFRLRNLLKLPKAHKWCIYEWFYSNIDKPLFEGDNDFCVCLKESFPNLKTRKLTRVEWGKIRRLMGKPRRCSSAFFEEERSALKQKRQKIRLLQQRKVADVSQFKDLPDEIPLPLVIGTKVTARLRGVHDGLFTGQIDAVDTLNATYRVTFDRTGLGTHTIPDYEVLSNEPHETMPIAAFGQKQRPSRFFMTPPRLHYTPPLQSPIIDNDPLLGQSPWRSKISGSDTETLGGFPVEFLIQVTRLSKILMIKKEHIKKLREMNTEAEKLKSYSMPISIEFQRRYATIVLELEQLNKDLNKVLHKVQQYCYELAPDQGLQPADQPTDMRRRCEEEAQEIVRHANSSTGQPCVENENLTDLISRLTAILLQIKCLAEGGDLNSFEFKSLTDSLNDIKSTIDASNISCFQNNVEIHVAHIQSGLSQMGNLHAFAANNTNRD
UniProt Q09028: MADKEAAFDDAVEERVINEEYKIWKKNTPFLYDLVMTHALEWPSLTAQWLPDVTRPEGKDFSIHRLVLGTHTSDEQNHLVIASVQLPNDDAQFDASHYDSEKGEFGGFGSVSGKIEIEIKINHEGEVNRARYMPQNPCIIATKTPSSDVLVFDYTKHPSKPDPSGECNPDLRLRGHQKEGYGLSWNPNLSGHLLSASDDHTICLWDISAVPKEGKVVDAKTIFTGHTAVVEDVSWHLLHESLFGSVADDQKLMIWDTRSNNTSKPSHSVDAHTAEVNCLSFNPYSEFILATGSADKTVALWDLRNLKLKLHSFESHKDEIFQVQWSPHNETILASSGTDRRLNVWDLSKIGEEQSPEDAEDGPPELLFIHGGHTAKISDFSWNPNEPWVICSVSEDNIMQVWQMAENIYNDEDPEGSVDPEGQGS

Assays:
[1] = target: GST-TAF15 recombinant protein (UniProt Q92804); assay: pull-down; whole lysates of HCT116 cells transfected with Flag-EV or Flag-MYBL2 pulled down by GST-TAF15 or GST; immunoblotting; only the target purified
[2] = target: Flag-MYBL2 (UniProt P10244); assay: co-IP; DLD1 cells transfected with empty vector or Flag-MYBL2 for 48 h, lysed in IP lysis buffer; ANTI-FLAG M2 magnetic beads; western blotting for RBBP4, LIN9, TAF15

| binding [1] | binding [2] | Substance |
| --- | --- | --- |
| binds |  | Flag-MYBL2 (from UniProt P10244 1-700) |
|  | binds | LIN9 (from UniProt Q5TKA1 1-542) |
|  | binds | RBBP4 (from UniProt Q09028 1-425) |
